PubChem BioAssay AID1053208, Peter MacCallum Cancer Centre | 2014
The deposit covers about 17,000 reagents; shown is a random part of them. 788 of them (4.7%) were called active. 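Calls rest on z-score classes alone; an extra cut-off of viability at most 70% of control was not applied to them.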

- Screen: 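Synthetic lethal interactions between gene loss and doxorubicin in osteosarcoma cells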 (primary screen)
- System: mouse osteosarcoma cells, early-passage culture from an engineered mouse model of fibroblastic bone tumour
- Knock-down reagent: siRNA pool against mouse genes, 40 nM
- Duration: about 120 h (48 h before drug, then 72 h with drug)
- Challenge: doxorubicin 100 nM for 72 h, roughly 30-40% inhibitory dose
- Detection: 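Viability read as ATP luminescence after 72 h of 100 nM doxorubicin or none, duplicate wells averaged, scaled to non-targeting siRNA, then expressed as robust z-scores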
- Reading the numbers: viability z-score with doxorubicin and doxorubicin viability vs non-targeting: higher = more viable cells under doxorubicin; viability z-score without drug: higher = more viable cells with knock-down alone; z-score of drug to no-drug ratio: higher = less drug sensitisation by knock-down
- Active means: 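a pool counts as active when its viability z-score with doxorubicin is -2 or below and its z-score without drug lies between -2 and 2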

| Target gene | PubChem SID | combined z-score class | viability z-score with doxorubicin | viability z-score without drug | z-score of drug to no-drug ratio | doxorubicin viability vs non-targeting | activity call |
| --- | --- | --- | --- | --- | --- | --- | --- |
| Rwdd1 | SID152332913 | high cell count without drug only | 0.45 | 2.53 | -1.01 | 0.98 | inactive |
| Nav1 | SID152301620 | no change with or without drug | 0 | -0.84 | 0.67 | 0.94 | inactive |
| Crlf3 | SID152270813 | no change with or without drug | -0.34 | 0.51 | -0.56 | 0.91 | inactive |
| Bag6 | SID152261638 | no change with or without drug | -1.8 | -0.84 | -1.24 | 0.78 | inactive |
| Msto1 | SID152301350 | no change with or without drug | -0.56 | -0.51 | -0.11 | 0.89 | inactive |
| Neu3 | SID152301819 | no change with or without drug | -0.22 | 0.51 | -0.45 | 0.92 | inactive |
| Rbms2 | SID152283379 | no change with or without drug | -1.57 | -0.51 | -1.24 | 0.8 | inactive |
| Aacs | SID152287129 | no change with or without drug | 0.34 | -0.84 | 1.12 | 0.97 | inactive |
| Tprkb | SID152342772 | no change with or without drug | -0.56 | -0.17 | -0.34 | 0.89 | inactive |
| Selplg | SID152302550 | no change with or without drug | -0.22 | 0.67 | -0.56 | 0.92 | inactive |
| Ankrd52 | SID152303328 | high cell count without drug only | 1.12 | 2.02 | -0.11 | 1.04 | inactive |
| Rap1gap | SID152299755 | no change with or without drug | 0.34 | 0.51 | 0.11 | 0.97 | inactive |
| Cdc42se1 | SID152316063 | no change with or without drug | 0 | 0.34 | -0.11 | 0.94 | inactive |
| Tmbim4 | SID152310633 | no change with or without drug | 1.91 | 0.84 | 1.46 | 1.11 | inactive |
| Or52b4 | SID152326241 | high cell count without drug only | 1.91 | 2.02 | 0.67 | 1.11 | inactive |
| Kcnc1 | SID152262933 | high cell count without drug only | 0.79 | 2.19 | -0.45 | 1.01 | inactive |
| Kcnc1 | SID152339055 | no change with or without drug | -0.22 | -0.84 | 0.45 | 0.92 | inactive |
| Ell | SID152305386 | high cell count without drug only | -1.12 | 2.7 | -2.47 | 0.84 | inactive |
| Mmab | SID152311197 | no change with or without drug | 0.45 | 0.84 | 0 | 0.98 | inactive |
| Slc60a2a | SID152278987 | no change with or without drug | 0.11 | 1.52 | -0.79 | 0.95 | inactive |
| Rab27b | SID152288590 | no change with or without drug | 0.22 | 1.85 | -0.79 | 0.96 | inactive |
| Yeats4 | SID152294788 | low cell count with doxorubicin only | -2.36 | -1.18 | -1.69 | 0.73 | active |
| D830024N08Rik | SID152293960 | no change with or without drug | 0 | 0.17 | 0 | 0.94 | inactive |
| Nelfa | SID152269159 | no change with or without drug | -1.57 | -0.84 | -1.01 | 0.8 | inactive |
| Tcp11 | SID152280460 | low cell count with doxorubicin only | -2.47 | -0.51 | -2.25 | 0.72 | active |
| Fam216a | SID152262231 | no change with or without drug | -0.11 | -1.18 | 0.9 | 0.93 | inactive |
| 5930422O12Rik | SID152330031 | no change with or without drug | -0.34 | 0.51 | -0.56 | 0.91 | inactive |
| Ube2j2 | SID152339815 | no change with or without drug | 0 | 0.17 | 0 | 0.94 | inactive |
| Tmprss11g | SID152273301 | no change with or without drug | -0.34 | 1.01 | -0.9 | 0.91 | inactive |
| Mrpl40 | SID152312108 | low cell count without drug only | -1.35 | -2.36 | 0.34 | 0.82 | inactive |
| Sik2 | SID152333789 | no change with or without drug | 1.46 | 1.01 | 0.9 | 1.07 | inactive |
| Timm13 | SID152308258 | no change with or without drug | -0.22 | 0.17 | -0.22 | 0.92 | inactive |
| Or6d14 | SID152297672 | no change with or without drug | -0.67 | 0.51 | -0.9 | 0.88 | inactive |
| Tekt2 | SID152267149 | no change with or without drug | 0.67 | -1.18 | 1.8 | 1 | inactive |
| Sh3bgr | SID152330248 | no change with or without drug | -0.67 | -1.69 | 0.67 | 0.88 | inactive |
| Emc10 | SID152301957 | low cell count with doxorubicin only | -2.02 | -1.52 | -1.12 | 0.76 | active |
| Usp46 | SID152336104 | no change with or without drug | 1.57 | -0.17 | 1.91 | 1.08 | inactive |
| Rfx1 | SID152296358 | no change with or without drug | -0.45 | -0.17 | -0.22 | 0.9 | inactive |
| Tex47 | SID152297977 | no change with or without drug | -0.9 | -0.34 | -0.67 | 0.86 | inactive |
| Gpr12 | SID152298024 | no change with or without drug | -0.9 | -1.35 | 0.11 | 0.86 | inactive |
| Usp15 | SID152273623 | no change with or without drug | 0 | -0.34 | 0.34 | 0.94 | inactive |
| Or2ag15 | SID152335540 | no change with or without drug | 0.22 | 0.17 | 0.22 | 0.96 | inactive |
| Bicd1 | SID152296577 | no change with or without drug | 1.12 | 1.18 | 0.45 | 1.04 | inactive |
| Blm | SID152286300 | no change with or without drug | 0.34 | -0.17 | 0.56 | 0.97 | inactive |
| Fcna | SID152296860 | no change with or without drug | -0.11 | 0.67 | -0.45 | 0.93 | inactive |
| Cask | SID152274006 | low cell count without drug only | 0.9 | -2.19 | 2.92 | 1.02 | inactive |
| Or55b10 | SID152298300 | no change with or without drug | 1.01 | 1.35 | 0.22 | 1.03 | inactive |
| A930006J02Rik (retired record) | SID152317220 | no change with or without drug | 1.24 | 1.85 | 0.11 | 1.05 | inactive |
| Myct1 | SID152274442 | no change with or without drug | 0.45 | 0.51 | 0.22 | 0.98 | inactive |
| Mov10l1 | SID152281788 | no change with or without drug | -0.34 | -1.18 | 0.56 | 0.91 | inactive |
